No constants are given. Whether binding was seen depends on the method and setting. Binding seen in cells or lysates may run through a third protein. Some results given as binding are weak or reduced against the parent protein; the word gives no strength. Blank lines part the entries; values can stand above or below the molecule they belong to.
How the values were obtained:
Experiment in all cases: co-IP; 5x10^6 HK-2 cells lysed in Non-Denaturing Lysis Buffer; lysates incubated with primary antibodies or normal rabbit IgG and Protein A/G Magnetic Beads overnight at 4 °C; western blot; for STX17 with VAMP8 also cells with LV-shATP6V0C, LV-shTFEB, or LV-shATP6V0C in TFEB-overexpressed cells
[1] = molecular target: syntaxin17 (STX17) (human (endogenous in HK-2)) (UniProt P56962)
[2] = molecular target: T1, vesicle-associated membrane protein 8 (VAMP8) (human (endogenous in HK-2)) (UniProt Q9BV40)
T1 sequence: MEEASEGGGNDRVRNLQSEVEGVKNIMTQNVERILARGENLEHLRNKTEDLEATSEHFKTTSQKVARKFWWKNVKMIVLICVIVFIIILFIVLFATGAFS

Sequences of proteins named here, by UniProt entry; tags and fusion partners are left off.
UniProt P27449: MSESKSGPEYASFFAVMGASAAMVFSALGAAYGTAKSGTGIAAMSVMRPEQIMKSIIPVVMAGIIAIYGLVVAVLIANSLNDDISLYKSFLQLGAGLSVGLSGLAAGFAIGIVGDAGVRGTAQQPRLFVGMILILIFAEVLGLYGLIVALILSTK

[3] = molecular target: ATP6V0C (human (endogenous in HK-2)) (UniProt P27449)
[4] = molecular target: T2, syntaxin17 (STX17) (human (endogenous in HK-2)), P56962; details: remark: other sources report otherwise
T2 chain: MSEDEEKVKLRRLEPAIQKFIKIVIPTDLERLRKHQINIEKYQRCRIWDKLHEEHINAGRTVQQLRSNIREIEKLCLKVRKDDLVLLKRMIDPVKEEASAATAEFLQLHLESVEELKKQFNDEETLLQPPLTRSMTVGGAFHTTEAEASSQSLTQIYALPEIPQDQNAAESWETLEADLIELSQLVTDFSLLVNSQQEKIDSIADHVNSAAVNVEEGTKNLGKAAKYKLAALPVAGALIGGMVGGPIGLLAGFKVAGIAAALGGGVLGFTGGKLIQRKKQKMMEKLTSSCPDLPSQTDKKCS

binding [1]: binds
binding [2]: binds
Molecule: ATP6V0C (from UniProt P27449 1-155)

binding [3]: binds
Molecule: syntaxin17 (STX17) (from UniProt P56962 1-302)

binding [4]: binds
B1: vesicle-associated membrane protein 8 (VAMP8), Q9BV40 1-100 (protein)
chain: T1 sequence
